Measured values taken from article PMC7819943, “Rice protein-binding microarrays: a tool to detect cis-acting elements near promoter regions in rice”.
Some of the results follow.

target: T1, OsSMF1 (Oryza sativa, UniProt Q6ZLB0 1-436); test: protein-binding microarray (RPBM); PBS, 2% BSA, 51.3 ng/ul salmon testes DNA, 50 uM zinc acetate, 200 nM TF, 25 C, 1 h; high values mean tight binding; conditions: protein: recombinant; tags: N-terminal polyhistidine and DsRed monomer fusion (pET32a); chain copies: 2; label: CyDye5-dUTP incorporated in the synthesized complementary strand; 3' TTTTT single-stranded linker to array surface; dsDNA, one strand shown
T1 sequence: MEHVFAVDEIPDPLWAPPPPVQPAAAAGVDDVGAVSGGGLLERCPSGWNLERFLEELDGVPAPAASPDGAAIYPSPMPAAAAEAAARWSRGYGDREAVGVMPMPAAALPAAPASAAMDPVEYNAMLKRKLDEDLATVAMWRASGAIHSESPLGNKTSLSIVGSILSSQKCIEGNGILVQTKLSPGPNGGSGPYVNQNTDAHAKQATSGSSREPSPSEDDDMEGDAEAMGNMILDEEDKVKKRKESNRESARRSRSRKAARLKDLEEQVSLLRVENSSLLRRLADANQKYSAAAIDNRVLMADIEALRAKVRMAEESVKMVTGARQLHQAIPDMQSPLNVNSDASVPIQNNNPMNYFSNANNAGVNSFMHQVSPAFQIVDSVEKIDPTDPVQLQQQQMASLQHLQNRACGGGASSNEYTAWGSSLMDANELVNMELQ
How it was run: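 The binding signal for each feature is its fluorescence intensity in arbitrary units. An Axon 4000B scanner was used to read a custom Agilent array that had been made double-stranded with Cy5-dUTP primer extension, blocked with 2% BSA, incubated at 25 °C for 1 h with 200 nM protein in PBS, 2% BSA, salmon testes DNA and 50 µM zinc acetate, and washed. The protein was an N-terminal polyhistidine–DsRed transcription factor fusion from E. coli BL21-CodonPlus, purified on Ni–NTA.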

Point of comparison: “CTGCAGCGAGTGCATCTTCGGGCATGGCCCCATGTCCATCCGGAGTCACCTAGTGCAG”, binding signal 12300 fluorescence intensity (a.u.). Against it:
- AAGATTGAAGGCAACCAAACCAACAAGGATGGATGCTTCTCGGAGTCACCTAGTGCAG — higher, 37800 fluorescence intensity (a.u.)
- ACGAAAACGACGTAAGCTGTAGTCAGAGTTTCAGACTATGCGGAGTCACCTAGTGCAG — lower, 3270 fluorescence intensity (a.u.)
- TGTTTGTATAATTTTGAGTTATCAACAGTCGCGATGGAGACGGAGTCACCTAGTGCAG — higher, 24900 fluorescence intensity (a.u.)
- ATCCATCCGGCGAAACTTCCACTGATGAATCGGACTTCCCCGGAGTCACCTAGTGCAG — lower, 3240 fluorescence intensity (a.u.)
- CGCAGCATCCCCGCCTGCTGTCACCGCCTAGCTACGTAAGCGGAGTCACCTAGTGCAG — lower, 3680 fluorescence intensity (a.u.)
- TCTCATCCTAATTAAATTTACCATTTAACACTATGGGTTACGGAGTCACCTAGTGCAG — higher, 14200 fluorescence intensity (a.u.)
- GTTATAGGAGGTTCAATGGCTGTATGCCACGTCGGCAAAACGGAGTCACCTAGTGCAG — higher, 14700 fluorescence intensity (a.u.)
- CGGCCGCCCCGACGAGCTCGCCTCCTCCCTCGTGGCGCTCCGGAGTCACCTAGTGCAG — lower, 3580 fluorescence intensity (a.u.)
- CACACACACACACACATGGCACATTGCTCATTGATCTTAGCGGAGTCACCTAGTGCAG — lower, 4280 fluorescence intensity (a.u.)
- ACCTAGGCATCTAGCGCATCAAGCTGACACAGGAGTCCACCGGAGTCACCTAGTGCAG — lower, 3300 fluorescence intensity (a.u.)
- GTTGAGTGTTGAGCTCGGTCGTCCTGTTCTTGACTTCTCGCGGAGTCACCTAGTGCAG — lower, 3750 fluorescence intensity (a.u.)
- ACTTGATCATACGAGTCAGTGTAGGATTTGATTGGTTGCACGGAGTCACCTAGTGCAG — lower, 3650 fluorescence intensity (a.u.)
- ATCCTACCCTTCGATCTGATTCATTCGCCGCCGCCGAATCCGGAGTCACCTAGTGCAG — lower, 3510 fluorescence intensity (a.u.)
- GTTAAACGCGCTGCCACGCGGCTTACACGCGTATCAAGAACGGAGTCACCTAGTGCAG — lower, 3700 fluorescence intensity (a.u.)
- ACCTGAAATCCCGCTTTGTCATTGGGTACGTTGTGTCATCCGGAGTCACCTAGTGCAG — lower, 3830 fluorescence intensity (a.u.)
- GTCGGCGAACGGGCGGCCGCTCCGCGTCGCCGTCCCGGTGCGGAGTCACCTAGTGCAG — lower, 5220 fluorescence intensity (a.u.)
- TGGATCTGGTAGTTACGTAATCAGAGTGGACACGCCGCGTCGGAGTCACCTAGTGCAG — lower, 4140 fluorescence intensity (a.u.)
- CGCTGAGATCACTAGCCAGAGCCTCACGTGTCCCGAACTTCGGAGTCACCTAGTGCAG — lower, 4300 fluorescence intensity (a.u.)
- TACAAATGAATTTGGATCACAACTCAACACTCTAAGCCCTCGGAGTCACCTAGTGCAG — higher, 24400 fluorescence intensity (a.u.)
- TTCGGCCTCCACATCATCATCTCCTCTCCTCTCTCGTCTCCGGAGTCACCTAGTGCAG — higher, 19100 fluorescence intensity (a.u.)
- ATCTTTGATTTGTCCTAAATTTGTGATGGGGATGTCACCGCGGAGTCACCTAGTGCAG — lower, 6560 fluorescence intensity (a.u.)
- GGGGTGGGCGGCCGCGGGAGCTCCACGGCATCGATCGCCACGGAGTCACCTAGTGCAG — lower, 4180 fluorescence intensity (a.u.)
- TGCAGGGACGATCTGATGGACAGCTCGGATTCGTCCCACACGGAGTCACCTAGTGCAG — lower, 3190 fluorescence intensity (a.u.)
- TCAGGGGTGGTGGTTCGTTGAAGTCGGCCGATGGAGGGGCCGGAGTCACCTAGTGCAG — lower, 3200 fluorescence intensity (a.u.)
- TTATCTCCTCATCCATTTTCATCCTCGTCTACATTCACTGCGGAGTCACCTAGTGCAG — higher, 24600 fluorescence intensity (a.u.)
- TGGTAGACGACGTGGCTGTTGACTGTGAGACGTCTATGGTCGGAGTCACCTAGTGCAG — lower, 5180 fluorescence intensity (a.u.)
- CCAATCCCGGTGGCGCCAGGCGATTCGTGGCCACGCCAGACGGAGTCACCTAGTGCAG — lower, 3590 fluorescence intensity (a.u.)
- CGCTGCATCGACGTGGAGCTGCAGTTGTGTTGTCCTCTCGCGGAGTCACCTAGTGCAG — lower, 8820 fluorescence intensity (a.u.)
- GTCAGTCACCGCCCTGTGGGGCCCACCCACCCGCGCCGTCCGGAGTCACCTAGTGCAG — lower, 9640 fluorescence intensity (a.u.)
- TTGAGAAATTTTGTCATGACGCAGAATACCACTACTCAACCGGAGTCACCTAGTGCAG — lower, 3630 fluorescence intensity (a.u.)
- TTTTCTGTTGTGTGCAGAAAAGAATACGTGGTGCTTAATTCGGAGTCACCTAGTGCAG — lower, 3140 fluorescence intensity (a.u.)
- TGTTGGTTGCCACACGTATATTTGGGCCCCTTATCCATCCCGGAGTCACCTAGTGCAG — lower, 4300 fluorescence intensity (a.u.)
- AAGCTGACGGTGAGCCCGGCGGTGACGCAGGCGCAGCAGCCGGAGTCACCTAGTGCAG — lower, 4280 fluorescence intensity (a.u.)
- GCTTATGCAGTCAAGGAATCTCTCGACGTAACTGCAGCACCGGAGTCACCTAGTGCAG — lower, 3390 fluorescence intensity (a.u.)
- ATACAGCTTGATTCCGTCGTCACAGGGCTCACACACACCTCGGAGTCACCTAGTGCAG — lower, 3370 fluorescence intensity (a.u.)
- TTCATCAAAAGCATAGACGGGGAATTTGTCATGATAATTGCGGAGTCACCTAGTGCAG — higher, 18300 fluorescence intensity (a.u.)
- TTTCGTAATGCTGCTTTTGTCAGGGTTGTTCTGAAACTTGCGGAGTCACCTAGTGCAG — higher, 15400 fluorescence intensity (a.u.)
- CGGAAGAAGGCCGCTGCTGCTGCAGCGGCGGCGGCCAAGACGGAGTCACCTAGTGCAG — lower, 3210 fluorescence intensity (a.u.)
- GCGCCCACTGCTAACTCCGACCGCCATGACACCTCTGGTTCGGAGTCACCTAGTGCAG — lower, 3630 fluorescence intensity (a.u.)
- ACCGCCACGGCGCCACCCATGAAGTTCGCCTCACAGTCACCGGAGTCACCTAGTGCAG — lower, 3280 fluorescence intensity (a.u.)
- TCGTCTCCTCACCCCGCTGCTTCTCGACACCGCCACCGCACGGAGTCACCTAGTGCAG — lower, 3320 fluorescence intensity (a.u.)
